Measurements as given in US12544355B2, “Use of monascinol in preparation of fat-reducing product” (TIANJIN UNIVERSITY OF SCIENCE AND TECHNOLOGY, priority 2019, dated 2026).

Tested on: Golden Syrian hamsters fed with high-fat diet
Experiment: High-fat diet hamster experiment, 10 weeks gavage
Format: in vivo, Golden Syrian hamster
Conditions: gavage 20 mg/kg body weight daily
Protocol: 24 male Golden Syrian hamsters (hamsters for short) used in the animal experiment were purchased from Beijing Vital River Laboratory Animal Technology Co., Ltd., weighing 110-120 g, and aged 8 weeks.
After acclimation for a period of time, they were randomly divided into 3 groups, each with 8 animals, and the grouping and experiments were carried out as follows:
Every day starting from Day 1: • Normal group (NOR): take normal-chow diet freely, and gavage the same amount of CMC-Na solution as the MC group; • High fat group (HFD): take high-fat chow diet freely, and gavage the same amount of CMC-Na solution as the MC group; • MC group: take high-fat chow diet freely, and gavage MC (dissolved in CMC-Na solution) at a dose of 20 mg/kg body weight.
The weight and food intake of the hamsters were measured every week. After 10 weeks, tissue samples or serum samples were collected and the following analysis was performed.
TC and TG in the liver were extracted based on the Folch method, the TC and TG detection kits produced by Nanjing Jiancheng Bioengineering Institute was used to detect the contents of TC and TG in liver tissue according to the method provided in the instructions.
Cobas8000 E602 full-automatic biochemical analyzer (Roche Diagnostics Co., Ltd., Germany) was used to measure TC and TG in serum of collected serum samples.

C/C=C/C1=CC2=C(CO1)C[C@]1(C)OC(=O)[C@H](C(O)CCCCC)[C@H]1C2 (some centres unmarked) [MC, Monascinol]
Food intake: 6.71 ± 0.35^b g | Kidney weight: 0.97 ± 0.04^a g

Marks after values point to notes of the source that are not given here.
